For experiment [1], the target named is rhesus recombinant CD70 (FLAG-TNC-rhesus CD70) (rhesus). Kind of experiment: inhibition ELISA on captured FLAG-TNC-rhesus CD70, mAb titrated, remaining binding of CD27-Fc detected.
The target is the same in experiment [2]. Kind of experiment: Biacore off-rate; rhesus recombinant CD70 on chip. (Surface plasmon resonance follows binding to a sensor surface in real time, without labels.)
Experiment [3] addresses human-mouse CD70 chimera chim-2.3 (Flag-TNC-CD70). The experiment in a line: ELISA; captured chimera.
Experiment [4] concerns the target cynomolgus monkey Flag-TNC-CD70 (cynomolgus monkey). The experiment in a line: blocking ELISA; cynomolgus Flag-TNC-CD70.
The target of experiment [5] is rhesus recombinant CD70 (FLAG-TNC-rhesus CD70) (rhesus). The experiment in a line: blocking ELISA; rhesus Flag-TNC-CD70. Background: In an ELISA, binding on a coated surface is turned into a signal by an enzyme label.

Results are given in words; binding and its absence hold for the method and conditions named. For some assays here: Binding can be weak; no strength is given.

This is an account of results in patent US20150266963A1.

B1: 59D10 chimeric llama-human mAb (antibody, human IgG1, V domains shown)
VH: EVQLVESGGGLVQPGGSLRLSCAASELSFSISEMTWVRQAPGKGLEWVSGISGVTGGSSTSYADSVKGRFTISRDNDKNTLYLQMNSLIPEDTAVYYCATTSGTYYFIPEYEYWGQGTQVTVSS
VL: QSVLTQPPSVSGSPGKTVTISCAGTSSDVGYGYYVSWYQQFPGMAPKLLIYDVNKRASGIADRFSGSKAGNTASLTISGLQSEDEADYYCASYRSSANAVFGGGTHLTVLG
Consider B1, for which, in experiment [1], the binding result was “no binding (tested: log 4 = 10000 ng/ml)”.

B2: 59D10 Fab (Fab, V domains shown)
VH: EVQLVESGGGLVQPGGSLRLSCAASELSFSISEMTWVRQAPGKGLEWVSGISGVTGGSSTSYADSVKGRFTISRDNDKNTLYLQMNSLIPEDTAVYYCATTSGTYYFIPEYEYWGQGTQVTVSS
VL: QSVLTQPPSVSGSPGKTVTISCAGTSSDVGYGYYVSWYQQFPGMAPKLLIYDVNKRASGIADRFSGSKAGNTASLTISGLQSEDEADYYCASYRSSANAVFGGGTHLTVLG
On to B2, for which the binding result in experiment [2] is given as “no binding”.

B3: ARGX-110 (non-fucosylated 41D12 human IgG1) (antibody, V domains shown)
VH: EVQLVESGGGLVQPGGSLRLSCAASGFTFSVYYMNWVRQAPGKGLEWVSDINNEGGTTYYADSVKGRFTISRDNSKNSLYLQMNSLRAEDTAVYYCARDAGYSNHVPIFDSWGQGTLVTVSS
VL: QAVVTQEPSLTVSPGGTVTLTCGLKSGSVTSDNFPTWYQQTPGQAPRLLIYNTNTRHSGVPDRFSGSILGNKAALTITGAQADDEAEYFCALFISNPSVEFGGGTQLTVLG
For B3, the binding result in experiment [3], in experiment [4] and in experiment [5] was “binds” each time.
